Article PMC8274477
No constants are given. Whether binding was seen depends on the method and setting. Some entries that bind do so weakly or less than the wild type.

By UniProt entry, the sequences of proteins in these tests, tags left out.
UniProt O43516: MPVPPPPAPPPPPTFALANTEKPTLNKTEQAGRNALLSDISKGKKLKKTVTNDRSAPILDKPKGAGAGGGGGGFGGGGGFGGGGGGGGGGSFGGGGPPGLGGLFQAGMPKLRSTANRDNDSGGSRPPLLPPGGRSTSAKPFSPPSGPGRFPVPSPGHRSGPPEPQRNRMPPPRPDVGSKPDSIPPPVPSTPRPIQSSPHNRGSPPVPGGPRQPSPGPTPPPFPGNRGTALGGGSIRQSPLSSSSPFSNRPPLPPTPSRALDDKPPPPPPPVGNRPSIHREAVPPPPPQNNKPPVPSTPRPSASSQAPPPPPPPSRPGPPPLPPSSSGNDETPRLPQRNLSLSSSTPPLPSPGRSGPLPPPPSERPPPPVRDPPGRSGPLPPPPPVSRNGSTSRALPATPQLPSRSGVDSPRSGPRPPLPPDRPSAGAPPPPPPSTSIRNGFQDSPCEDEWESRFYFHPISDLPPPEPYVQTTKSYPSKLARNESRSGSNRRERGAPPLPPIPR
UniProt Q8IZP0: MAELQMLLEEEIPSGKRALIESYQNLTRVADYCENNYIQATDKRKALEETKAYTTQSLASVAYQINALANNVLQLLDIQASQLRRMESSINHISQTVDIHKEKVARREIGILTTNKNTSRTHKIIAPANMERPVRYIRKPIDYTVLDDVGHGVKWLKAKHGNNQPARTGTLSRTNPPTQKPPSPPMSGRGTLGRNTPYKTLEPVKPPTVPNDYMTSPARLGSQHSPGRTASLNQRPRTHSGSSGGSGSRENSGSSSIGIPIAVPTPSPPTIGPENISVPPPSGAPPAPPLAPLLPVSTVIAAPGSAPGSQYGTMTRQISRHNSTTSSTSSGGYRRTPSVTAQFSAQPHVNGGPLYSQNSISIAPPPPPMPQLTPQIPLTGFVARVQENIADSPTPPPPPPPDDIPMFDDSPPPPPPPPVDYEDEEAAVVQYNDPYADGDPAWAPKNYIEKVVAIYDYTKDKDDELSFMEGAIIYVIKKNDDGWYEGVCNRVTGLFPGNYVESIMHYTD
UniProt P27361: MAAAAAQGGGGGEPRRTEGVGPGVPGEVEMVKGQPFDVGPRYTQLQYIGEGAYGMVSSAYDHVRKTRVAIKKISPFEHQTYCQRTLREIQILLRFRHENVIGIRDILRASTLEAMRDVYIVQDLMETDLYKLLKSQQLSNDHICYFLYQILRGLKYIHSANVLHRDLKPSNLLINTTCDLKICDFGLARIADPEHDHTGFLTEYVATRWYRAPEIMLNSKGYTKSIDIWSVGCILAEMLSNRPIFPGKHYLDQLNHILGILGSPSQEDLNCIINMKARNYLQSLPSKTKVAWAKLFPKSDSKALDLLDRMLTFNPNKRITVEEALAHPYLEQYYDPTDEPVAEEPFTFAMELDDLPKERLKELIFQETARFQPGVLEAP

Assays:
Assay in all cases: peptide or protein array; HuProt human proteome microarray; 5 ug/5 ml biotin-labelled LUBAC or OTULIN in solution, 1 h at room temperature; Cy5-streptavidin, scanned at 635 nm; BSA as negative control; hits: Z-score >= 3 and I_(Mean_Ratio) >= 1.4; both purified
CUTA (human) = biological target: T1, CUTA (human) (UniProt O60888)
T1 sequence: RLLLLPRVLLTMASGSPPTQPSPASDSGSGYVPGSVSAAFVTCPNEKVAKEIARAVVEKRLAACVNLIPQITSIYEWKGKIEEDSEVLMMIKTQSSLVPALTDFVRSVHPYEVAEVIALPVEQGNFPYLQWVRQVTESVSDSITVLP

WIPF1 (human) = WIPF1 (human) (UniProt O43516)
[1] = biological target: ABI1 (spot on the microarray) (human) (UniProt Q8IZP0)
RBM42 (human) = biological target: T2, RBM42 (human) (UniProt Q9BTD8)
T2 sequence: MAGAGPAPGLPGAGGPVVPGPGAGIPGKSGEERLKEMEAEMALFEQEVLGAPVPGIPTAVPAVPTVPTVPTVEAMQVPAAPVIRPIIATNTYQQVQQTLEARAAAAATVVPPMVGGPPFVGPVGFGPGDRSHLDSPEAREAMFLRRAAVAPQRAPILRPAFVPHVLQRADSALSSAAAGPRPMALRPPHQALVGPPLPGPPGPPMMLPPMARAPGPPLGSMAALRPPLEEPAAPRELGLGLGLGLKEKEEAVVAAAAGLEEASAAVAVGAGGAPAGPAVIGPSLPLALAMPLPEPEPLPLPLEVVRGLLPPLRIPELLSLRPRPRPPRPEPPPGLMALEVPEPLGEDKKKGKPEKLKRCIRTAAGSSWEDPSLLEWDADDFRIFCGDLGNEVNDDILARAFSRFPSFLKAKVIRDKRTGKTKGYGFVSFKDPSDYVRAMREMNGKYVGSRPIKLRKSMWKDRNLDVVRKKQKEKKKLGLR

MAPK3 (human) = MAPK3 (human) (UniProt P27361)
ECI2 (human) = biological target: T3, ECI2 (human) (UniProt O75521)
T3 sequence: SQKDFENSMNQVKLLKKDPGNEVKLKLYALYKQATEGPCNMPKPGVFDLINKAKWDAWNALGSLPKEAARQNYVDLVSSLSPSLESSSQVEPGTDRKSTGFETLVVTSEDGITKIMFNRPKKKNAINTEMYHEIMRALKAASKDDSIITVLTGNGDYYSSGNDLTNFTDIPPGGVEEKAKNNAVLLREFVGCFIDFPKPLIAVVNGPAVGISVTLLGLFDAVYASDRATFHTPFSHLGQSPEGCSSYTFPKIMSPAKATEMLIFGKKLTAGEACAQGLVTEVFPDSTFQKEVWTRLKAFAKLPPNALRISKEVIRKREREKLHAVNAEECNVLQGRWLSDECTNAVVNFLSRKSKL

XRN2 (human) = biological target: T4, XRN2 (human) (UniProt Q9H0D6)
T4 sequence: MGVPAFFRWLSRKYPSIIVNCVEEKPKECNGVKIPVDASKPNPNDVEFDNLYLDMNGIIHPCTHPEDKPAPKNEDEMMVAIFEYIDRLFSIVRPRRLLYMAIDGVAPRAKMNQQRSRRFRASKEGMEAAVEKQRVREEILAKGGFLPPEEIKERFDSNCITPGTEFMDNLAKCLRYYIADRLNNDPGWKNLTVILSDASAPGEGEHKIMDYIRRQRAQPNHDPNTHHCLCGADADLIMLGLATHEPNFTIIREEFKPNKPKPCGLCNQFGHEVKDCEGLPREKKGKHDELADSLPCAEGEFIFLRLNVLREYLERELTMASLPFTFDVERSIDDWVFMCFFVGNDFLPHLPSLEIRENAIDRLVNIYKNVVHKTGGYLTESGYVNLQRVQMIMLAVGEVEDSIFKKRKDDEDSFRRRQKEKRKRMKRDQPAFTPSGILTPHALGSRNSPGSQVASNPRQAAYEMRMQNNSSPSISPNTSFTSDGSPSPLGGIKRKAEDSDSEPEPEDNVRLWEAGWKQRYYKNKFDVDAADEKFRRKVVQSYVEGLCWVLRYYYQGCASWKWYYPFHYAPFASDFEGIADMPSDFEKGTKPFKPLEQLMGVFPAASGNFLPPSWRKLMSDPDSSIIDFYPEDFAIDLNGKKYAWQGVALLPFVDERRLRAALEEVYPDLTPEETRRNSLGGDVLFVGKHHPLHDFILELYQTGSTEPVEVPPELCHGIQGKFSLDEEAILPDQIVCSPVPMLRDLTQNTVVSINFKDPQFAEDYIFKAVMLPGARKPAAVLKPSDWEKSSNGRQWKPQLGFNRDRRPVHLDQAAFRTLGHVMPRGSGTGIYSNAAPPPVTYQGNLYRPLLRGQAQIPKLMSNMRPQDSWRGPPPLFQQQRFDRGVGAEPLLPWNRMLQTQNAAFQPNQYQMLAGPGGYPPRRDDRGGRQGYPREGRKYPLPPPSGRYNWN

binding (CUTA (human)): binds | binding (WIPF1 (human)): binds | binding [1]: binds | binding (RBM42 (human)): binds | binding (MAPK3 (human)): binds | binding (ECI2 (human)): binds | binding (XRN2 (human)): binds
Substance: linear ubiquitin chain assembly complex (LUBAC), purified as HIS-tagged HOIP with the subunit HOIL-1, biotin-labelled (from UniProt Q96EP0 1-1072; Q9BYM8 1-510)
